PubChem BioAssay AID720505, Drosophila RNAi Screening Center – 2013
In all, the deposit lists about 20,000 reagents; this is a random part of those that have a named target and a result. Of all reagents, about 2,100 (10%) are marked active. 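Raw plate signals without normalisation; calls rest on control-based scores that were not deposited; replicate 2 separates called from uncalled poorly.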 Not given: the amount of reagent, the time to read-out.

Screen: 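Knock-downs that reduce calcium influx once internal stores are emptied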 (primary screen)
System: Drosophila S2R+ cells
Knock-down reagent: long dsRNA against Drosophila genes
Challenge: thapsigargin (2 µM) in calcium-free buffer to empty internal stores, then 2 mM calcium added back
Measured: 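Fluo-4 signal in 384-well plates read on a FLIPR after thapsigargin (2 µM, calcium-free) store depletion and 2 mM calcium add-back; unnormalised mean endpoint per well; screen run twice, selected wells retested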
Reading the numbers: calcium signal and retest calcium signal: higher = more calcium entry after store depletion
Active means: 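Knock-downs counted as hits when calcium entry dropped relative to STIM1 positive and Rho1 negative controls present on each plate; roughly 1500 genes called, with reductions of differing size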
Meaning of the calls: active = called as lowering calcium entry; inactive = not called

predicted target | DRSC id | calcium signal, replicate 1 | calcium signal, replicate 2 | retest calcium signal, replicate 1 | retest calcium signal, replicate 2 | activity call
CG6142 | DRSC15976 | 221 | 156 | – | – | inactive
Eb1 | DRSC05016 | 128 | 222 | – | – | inactive
wb | DRSC01375 | 76.5 | 75 | – | – | inactive
wb | DRSC03634 | 75.9 | 106 | – | – | active
wb | DRSC23003 | 97.3 | 100 | – | – | inactive
CtsK1 | DRSC08742 | 97.4 | 101 | – | – | inactive
CG17026 | DRSC10237 | 100 | 151 | 84.8 | 123 | inactive
CG31145 | DRSC14206 | 93 | 82 | – | – | inactive
CG31145 | DRSC14670 | 114 | 82.4 | – | – | inactive
CG31145 | DRSC14671 | 108 | 78.7 | – | – | inactive
CG14154 | DRSC10156 | 81.6 | 63.2 | – | – | inactive
CG43349 | DRSC00039 | 115 | 139 | 70.3 | 96.6 | inactive
fz2 | DRSC10087 | 163 | 87.7 | 137 | 84.7 | inactive
fz2 | DRSC11349 | 88.5 | 189 | – | – | inactive
HP1c | DRSC16166 | 186 | 287 | 163 | 149 | inactive
CG17380 | DRSC15230 | 283 | 152 | – | – | inactive
Gmd | DRSC03119 | 72.9 | 175 | – | – | inactive
CG7916 | DRSC01901 | 83.6 | 100 | – | – | inactive
CG34202 | DRSC05907 | 80 | 109 | – | – | inactive
CG43347 | DRSC17982 | 79.6 | 128 | – | – | inactive
CG43347 | DRSC18446 | 46.9 | 82.6 | 123 | 4322 | active
CG43347 | DRSC22656 | 77.2 | 170 | – | – | inactive
CG43347 | DRSC22682 | 97.9 | 170 | – | – | inactive
CG43347 | DRSC23007 | 128 | 154 | – | – | inactive
CG43347 | DRSC23170 | 105 | 90.9 | – | – | inactive
CG13218 | DRSC06340 | 93.4 | 121 | – | – | inactive
Cog6 | DRSC06806 | 199 | 124 | – | – | inactive
CG15117 | DRSC06539 | 128 | 123 | – | – | inactive
CG1572 | DRSC19686 | 114 | 98 | – | – | inactive

An excerpt taken from the entries so far:
predicted target | DRSC id | calcium signal, replicate 1 | calcium signal, replicate 2 | retest calcium signal, replicate 1 | retest calcium signal, replicate 2 | activity call
CG17380 | DRSC15230 | 283 | 152 | – | – | inactive
Gmd | DRSC03119 | 72.9 | 175 | – | – | inactive
CG7916 | DRSC01901 | 83.6 | 100 | – | – | inactive
CG34202 | DRSC05907 | 80 | 109 | – | – | inactive
CG43347 | DRSC17982 | 79.6 | 128 | – | – | inactive
CG43347 | DRSC18446 | 46.9 | 82.6 | 123 | 4322 | active
CG43347 | DRSC22656 | 77.2 | 170 | – | – | inactive
CG43347 | DRSC22682 | 97.9 | 170 | – | – | inactive

Continued.
predicted target | DRSC id | calcium signal, replicate 1 | calcium signal, replicate 2 | retest calcium signal, replicate 1 | retest calcium signal, replicate 2 | activity call
lncRNA:CR31044 | DRSC22451 | 121 | 157 | – | – | inactive
Dscam1 | DRSC05047 | 97 | 127 | – | – | inactive
Dscam1 | DRSC05048 | 88 | 82.2 | – | – | inactive
Dscam1 | DRSC07407 | 85.9 | 141 | – | – | inactive
Dscam1 | DRSC21562 | 193 | 117 | – | – | inactive
Dscam1 | DRSC22383 | 89 | 205 | – | – | inactive
Gr57a | DRSC06401 | 72.1 | 93.9 | – | – | inactive
CG7168 | DRSC16208 | 172 | 196 | – | – | inactive
CG10750 | DRSC02105 | 128 | 108 | – | – | inactive
Ptth | DRSC00356 | 94.8 | 126 | – | – | inactive
U2A | DRSC06445 | 109 | 115 | – | – | inactive
CG6295 | DRSC16012 | 212 | 138 | – | – | inactive
Ddx1 | DRSC11862 | 131 | 117 | – | – | inactive
CG8908 | DRSC07297 | 171 | 132 | – | – | inactive
mim | DRSC05013 | 67.5 | 97.3 | – | – | active
mim | DRSC23045 | 137 | 152 | – | – | inactive
Vha68-3 | DRSC02809 | 99 | 110 | – | – | inactive
CoRest | DRSC19881 | 67.7 | 97.6 | – | – | active
CoRest | DRSC21626 | 112 | 98.3 | – | – | inactive
CoRest | DRSC22305 | 108 | 212 | – | – | inactive
mod | DRSC16999 | 122 | 104 | – | – | inactive
HLH4C | DRSC18670 | 225 | 120 | 8186 | 183 | inactive
HLH4C | DRSC21322 | 76.5 | 89 | – | – | inactive
sav | DRSC14681 | 231 | 136 | – | – | inactive
sav | DRSC14682 | 207 | 133 | – | – | inactive
mr | DRSC04332 | 106 | 83.6 | – | – | inactive
mr | DRSC22856 | 90.6 | 88.3 | – | – | inactive
CG7369 | DRSC11822 | 145 | 72.4 | 172 | 147 | inactive
LRR | DRSC06444 | 112 | 138 | – | – | inactive
Mst36Fa | DRSC21564 | 203 | 111 | – | – | inactive
prtp | DRSC19804 | 138 | 91.3 | 6257 | 151 | inactive
prtp | DRSC22494 | 116 | 185 | – | – | inactive
Odc2 | DRSC07483 | 128 | 79.8 | – | – | inactive
CG13784 | DRSC00974 | 65.7 | 126 | – | – | active
CG13784 | DRSC02287 | 73.9 | 223 | – | – | inactive
TBC1D16 | DRSC02841 | 192 | 153 | – | – | inactive
chn | DRSC06086 | 169 | 93.7 | – | – | inactive
Tim13 | DRSC09848 | 63.8 | 74.3 | – | – | inactive
Targ2 | DRSC21970 | 81.9 | 139 | – | – | inactive
Ilp3 | DRSC10168 | 95.6 | 111 | – | – | inactive
Vps16A | DRSC16422 | 120 | 98.8 | – | – | inactive
kuk | DRSC15730 | 155 | 237 | – | – | inactive
Flad2 | DRSC02531 | 95.5 | 155 | – | – | inactive
mei-9 | DRSC18792 | 300 | 140 | – | – | inactive
dap | DRSC07601 | 115 | 143 | – | – | inactive
Ugt37E1 | DRSC02248 | 131 | 102 | – | – | inactive
CG32075 | DRSC10622 | 137 | 126 | – | – | inactive
Elp5 | DRSC08547 | 77.7 | 80.3 | – | – | inactive
ush | DRSC00843 | 116 | 171 | – | – | inactive
Desat2 | DRSC15919 | 157 | 116 | – | – | inactive
CG10584 | DRSC11624 | 99.6 | 87.8 | – | – | inactive
rgn | DRSC11609 | 55.2 | 110 | – | – | active
CG8028 | DRSC20075 | 198 | 94.9 | – | – | inactive
CG6421 | DRSC07420 | 106 | 108 | – | – | inactive
